PubChem BioAssay AID1259308, NCATS – 2017
Assay: 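Candidate targets for better recombinant protein yield in mammalian cells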 (primary screen). Cells: human HEK293 embryonic kidney cells stably expressing firefly luciferase (HEK-CMV-Luc2-Hygro). Reagent: single siRNA against human genes, 0.8 pmol siRNA per well. Duration: 72 h. Detection: 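Luciferase light (ONE-Glo) measured on one replicate plate set and viability (CellTiter-Glo) on the other, scaled to a negative control siRNA, with robust z-scores and luciferase per cell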. Scale: total luciferase, z-score and total luciferase, % of control: higher = more reporter protein produced. Call rule: 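Active when the median/MAD z-score for overall luciferase is greater than 3; a gene was taken forward for validation with new siRNAs if at least two of its three siRNAs passed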. Meaning of the calls: active = raised luciferase; inactive = no rise.
This is an unselected part of about 59,000 reagents tested. About 1,510 of them (2.6%) were called active. 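Calls use total luciferase alone and ignore viability, so some active siRNAs may act by altering cell number.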 Entries without a mark were called inactive. The numbers tell different reagents against one gene apart. Not all columns of the deposit are shown. Reagent sequences are not shown.

After knock-down of SLIRP #1, the screen gave total luciferase, z-score 0.0679; total luciferase, % of control 83.2.
Silencing of SLIRP #2 resulted in: total luciferase, z-score -0.609; total luciferase, % of control 69.8.
Against SLIRP #3, the entry reads total luciferase, z-score -0.771; total luciferase, % of control 66.5.
PDGFD #1 showed total luciferase, z-score 0.23; total luciferase, % of control 86.5.
Depletion of PDGFD #2 gave: total luciferase, z-score 1.18; total luciferase, % of control 105.
After knock-down of PDGFD #3, the record shows total luciferase, z-score 1.58; total luciferase, % of control 113.
For RPS12P9 #1 the deposit lists total luciferase, z-score -0.306; total luciferase, % of control 75.8.
After knock-down of RPS12P9 #2, the record shows total luciferase, z-score 0.603; total luciferase, % of control 93.9.
Against RPS12P9 #3, the values are total luciferase, z-score 0.3; total luciferase, % of control 87.9.
Against HSPA14 #1, the entry reads total luciferase, z-score 0.516; total luciferase, % of control 92.1.
Against HSPA14 #2 the deposit lists total luciferase, z-score -0.133; total luciferase, % of control 79.2.
Silencing of HSPA14 #3 gave: total luciferase, z-score -0.351; total luciferase, % of control 74.9.
After knock-down of BBS7 #1 the results were total luciferase, z-score 0.231; total luciferase, % of control 86.5.
For BBS7 #2 the deposit lists total luciferase, z-score -0.382; total luciferase, % of control 74.3.
BBS7 #3 gave total luciferase, z-score 0.768; total luciferase, % of control 97.2.
With knock-down of PDCL #1 the results were total luciferase, z-score -0.298; total luciferase, % of control 76.
Against PDCL #2 the deposit lists total luciferase, z-score 1.24; total luciferase, % of control 107.
After knock-down of PDCL #3, the screen gave total luciferase, z-score 0.699; total luciferase, % of control 95.8.
DBR1 #1 scored total luciferase, z-score -0.739; total luciferase, % of control 67.2.
With knock-down of DBR1 #2 the results were total luciferase, z-score -0.0412; total luciferase, % of control 81.1.
After knock-down of DBR1 #3 the results were total luciferase, z-score 1.35; total luciferase, % of control 109.
Knock-down of NCCRP1 #1 gave: total luciferase, z-score -0.425; total luciferase, % of control 73.4.
Depletion of NCCRP1 #2 gave: total luciferase, z-score 0.761; total luciferase, % of control 97.
For NCCRP1 #3, the values are total luciferase, z-score 0.127; total luciferase, % of control 84.4.

Reprinted from the entries so far, 5 entries:
BBS7 #2: total luciferase, z-score = -0.382; total luciferase, % of control = 74.3
BBS7 #3: total luciferase, z-score = 0.768; total luciferase, % of control = 97.2
PDCL #1: total luciferase, z-score = -0.298; total luciferase, % of control = 76
PDCL #2: total luciferase, z-score = 1.24; total luciferase, % of control = 107
PDCL #3: total luciferase, z-score = 0.699; total luciferase, % of control = 95.8

The list goes on.
With knock-down of KMT5C #1, the record shows total luciferase, z-score -0.193; total luciferase, % of control 78.
With knock-down of KMT5C #2, the record shows total luciferase, z-score 0.21; total luciferase, % of control 86.1.
For KMT5C #3 the deposit lists total luciferase, z-score -0.868; total luciferase, % of control 64.6.
Against RFLNA #1, the values are total luciferase, z-score -0.0755; total luciferase, % of control 80.4.
RFLNA #2 showed total luciferase, z-score 0.806; total luciferase, % of control 97.9.
RFLNA #3 scored total luciferase, z-score 0.0372; total luciferase, % of control 82.6.
After knock-down of SERAC1 #1 the results were total luciferase, z-score -0.554; total luciferase, % of control 70.9.
SERAC1 #2 showed total luciferase, z-score -0.286; total luciferase, % of control 76.2.
Depletion of SERAC1 #3 resulted in: total luciferase, z-score 0.679; total luciferase, % of control 95.4.
OPA3 #1 scored total luciferase, z-score 0.462; total luciferase, % of control 91.1.
Against OPA3 #2, the entry reads total luciferase, z-score 2.01; total luciferase, % of control 122.
Depletion of OPA3 #3 gave: total luciferase, z-score 0.561; total luciferase, % of control 93.
Depletion of GPR42 #1 came out at: total luciferase, z-score -1.42; total luciferase, % of control 53.6.
Knock-down of GPR42 #2 resulted in: total luciferase, z-score 0.115; total luciferase, % of control 84.2.
Silencing of GPR42 #3 gave: total luciferase, z-score 0.0854; total luciferase, % of control 83.6.
Against PCDHB3 #1, the entry reads total luciferase, z-score -0.116; total luciferase, % of control 79.6.
After knock-down of PCDHB3 #2, the screen gave total luciferase, z-score 2.43; total luciferase, % of control 130.
With knock-down of PCDHB3 #3, the record shows total luciferase, z-score -0.33; total luciferase, % of control 75.3.
